The values that follow come from PMC11673000 (2024).

The chains behind the UniProt entries cited, without tags or fusion partners. Where a name states a change or a piece, a line headed by the entry shows the natural chain unless it says otherwise.
UniProt Q9Y5A7: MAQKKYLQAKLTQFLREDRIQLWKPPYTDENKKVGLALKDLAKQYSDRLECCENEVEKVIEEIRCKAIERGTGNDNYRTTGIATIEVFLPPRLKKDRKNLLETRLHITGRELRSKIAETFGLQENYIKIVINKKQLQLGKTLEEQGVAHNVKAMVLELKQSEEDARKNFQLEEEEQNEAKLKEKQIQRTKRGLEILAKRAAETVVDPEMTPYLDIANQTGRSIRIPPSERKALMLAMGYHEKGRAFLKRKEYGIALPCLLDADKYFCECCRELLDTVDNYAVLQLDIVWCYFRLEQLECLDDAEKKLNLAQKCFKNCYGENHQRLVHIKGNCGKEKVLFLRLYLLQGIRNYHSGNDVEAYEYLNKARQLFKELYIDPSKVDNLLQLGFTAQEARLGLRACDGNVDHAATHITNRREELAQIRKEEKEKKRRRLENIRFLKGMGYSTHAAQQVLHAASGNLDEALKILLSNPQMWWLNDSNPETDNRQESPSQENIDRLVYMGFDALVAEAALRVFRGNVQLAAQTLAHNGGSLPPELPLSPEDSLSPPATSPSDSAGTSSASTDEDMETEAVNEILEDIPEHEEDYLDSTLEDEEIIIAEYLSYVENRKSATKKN
UniProt O15205: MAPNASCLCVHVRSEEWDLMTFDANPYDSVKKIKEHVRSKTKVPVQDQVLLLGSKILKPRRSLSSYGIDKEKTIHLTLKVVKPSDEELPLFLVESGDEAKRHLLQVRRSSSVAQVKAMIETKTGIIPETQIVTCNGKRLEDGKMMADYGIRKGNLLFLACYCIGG
UniProt P55036: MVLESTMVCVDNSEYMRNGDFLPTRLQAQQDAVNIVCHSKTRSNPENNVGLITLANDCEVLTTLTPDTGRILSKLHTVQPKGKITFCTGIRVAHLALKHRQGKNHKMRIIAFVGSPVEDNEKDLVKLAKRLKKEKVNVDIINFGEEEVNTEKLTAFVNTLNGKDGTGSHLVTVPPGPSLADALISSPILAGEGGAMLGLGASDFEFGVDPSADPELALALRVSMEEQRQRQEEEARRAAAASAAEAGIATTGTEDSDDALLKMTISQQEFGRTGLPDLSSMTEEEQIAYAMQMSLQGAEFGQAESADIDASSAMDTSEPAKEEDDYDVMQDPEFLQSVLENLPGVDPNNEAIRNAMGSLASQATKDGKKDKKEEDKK

These are yes or no findings as the source states them, for the method shown. Binding seen in cells or lysates may run through a third protein. Some binding calls cover weakened binding; strength is not graded here.

For assay [1], the target named is NEDD8 ultimate buster-1 long (NUB1L) (UniProt Q9Y5A7). In words: co-IP; HEK293T co-transfected with NUB1L and FAT10 (WT, D, single and multiple mutants); lysed one day later; HA-immunoprecipitation; immunoblot for FLAG-FAT10.
In assay [2] the target is FAT10 wild type (His-3xFLAG-FAT10) (UniProt O15205). In words: co-IP; HEK293T co-transfected with NUB1L and FAT10 expression plasmids; lysed one day later; FAT10 immunoprecipitated with monoclonal antibody 4F1 + protein A beads; immunoblot for NUB1L.
For assay [3], the target named is phospho-mimetic FAT10 (FAT10 D; S62D, S64D, T77E, S95D, S109D) (UniProt O15205). The description is as above.
For another assay, the target named is RPN10 (human) (UniProt P55036). In words: co-IP; HEK293T co-transfected with RPN10 and FAT10 (WT or D); lysed one day later; immunoprecipitation with HA beads; immunoblot. (Immunoblotting shows a protein as a band on a membrane.)

With “FAT10 T77E (single phospho-mimetic mutant) (from UniProt O15205 1-165)”, the binding result in assay [1] is on record as “binds weakly”.
With “NEDD8 ultimate buster-1 long (NUB1L) (from UniProt Q9Y5A7-1 1-615)”, the results for the binding entry in assay [2] and in assay [3] were “binds” and “no binding”, respectively.
On to “phospho-mimetic FAT10 (FAT10 D; S62D, S64D, T77E, S95D, S109D) (from UniProt O15205 1-165)”, for which the binding entry with RPN10 (human) is reported as “binds”.
